Values joined by “and” are separate entries in the source; they are usually repeats but may differ in a detail not shown here. Equal values may be shown once. This is one part of the list. Each value is one well over the wells without odorant, computed here; the data are noisy.
What follows are compounds tested on OR5T2 clone 1313 (assay: odorant receptor activation (CRE luciferase / Renilla) (fold of no-odor wells); higher = more activation). Conditions: 100 µM.
In the case of COC(=O)c1ccccc1 [methyl benzoate], the odorant receptor activation is reported as 0.646. Compound CCCCCOC(C)=O [n-amyl acetate] has an odorant receptor activation of 0.357. With C=CCc1ccc(OC(C)=O)c(OC)c1 [eugenol acetate] the odorant receptor activation was 1.51. For CC12CCC(CC1)C(C)(C)O2 [cineole], the odorant receptor activation was 1.11. Work on CCCC(=O)O [butyric acid] yielded an odorant receptor activation of 1.05. CCCCCC(C)=O [2-heptanone] was tested, and the odorant receptor activation was 0.923. CC(C)(C)c1ccc(CCC=O)cc1 [bourgeonal] showed an odorant receptor activation of 0.758. For CC(=O)OC1CC2CCC1(C)C2(C)C (stereo not drawn) [isobornyl acetate], the odorant receptor activation was 1.25 and 0.722. Compound CCCCO [1-butanol] has an odorant receptor activation of 0.89. CC(=O)c1ccccc1 [acetophenone] gave an odorant receptor activation of 0.791. In the case of COc1ccccc1O [guaiacol], the odorant receptor activation is reported as 1.05 and 0.91. Compound O=CCc1ccccc1 [phenyl acetaldehyde] has an odorant receptor activation of 1.32. CC12C=CCC1C1CCC3CC(=O)CCC3(C)C1CC2 (stereo not drawn) [androstenone] gave an odorant receptor activation of 1.09. C=C(C)C1CC=C(C)C(=O)C1 (stereo not drawn) [r-carvone] showed an odorant receptor activation of 0.727. Compound COC(=O)c1ccccc1O [methyl salicylate] has an odorant receptor activation of 1.06. Work on CCCCCCCCOC(C)=O [octyl acetate] yielded an odorant receptor activation of 1.12. In the case of CCC1(O)C2(C)CCC(C2)C1(C)C (stereo not drawn) [2-ethylfenchol], the odorant receptor activation is reported as 0.69. CC(C)=CCCC(C)=CC=O [citral] was tested, and the odorant receptor activation was 1.39. CC1=NC(C)SC1C (stereo not drawn) gave an odorant receptor activation of 0.698. With CC12C=CCC1C1CCC3=CC(=O)CCC3(C)C1CC2 (stereo not drawn) [androstadienone] the odorant receptor activation was 0.905 and 1.01. In the case of O=C1CCCCCCCCCCCC(=O)OCCO1 [ethylene brassylate], the odorant receptor activation is reported as 1.46. With CCCCCC(=O)O [caproic acid] the odorant receptor activation was 1.2. O=C1CCCCC1 [Cyclohexanone] gave an odorant receptor activation of 0.451. For CC(C)CC(=O)O [isovaleric acid], the odorant receptor activation was 0.755.

These compounds were tested on OR5T2 clone 1428 in the same assay as above. Conditions: 100 µM.
Work on COC(=O)c1ccccc1 [methyl benzoate] yielded an odorant receptor activation of 0.882. Work on CCCCCOC(C)=O [n-amyl acetate] yielded an odorant receptor activation of 0.902. With CC1COCc2cc3c(cc21)C(C)(C)C(C)C3(C)C (stereo not drawn) [galaxolide] the odorant receptor activation was 2.75. C=CCc1ccc(OC(C)=O)c(OC)c1 [eugenol acetate] showed an odorant receptor activation of 1.81. CC12CCC(CC1)C(C)(C)O2 [cineole] was tested, and the odorant receptor activation was 0.188. In the case of CCCC(=O)O [butyric acid], the odorant receptor activation is reported as 0.216. With CCCCCC(C)=O [2-heptanone] the odorant receptor activation was 0.785. For CC(C)(C)c1ccc(CCC=O)cc1 [bourgeonal], the odorant receptor activation was 0.161. CC(=O)OC1CC2CCC1(C)C2(C)C (stereo not drawn) [isobornyl acetate] was tested, and the odorant receptor activation was 0.959. CCCCO [1-butanol] gave an odorant receptor activation of 1.01. Compound CC(=O)c1ccccc1 [acetophenone] has an odorant receptor activation of 0.949. COc1ccccc1O [guaiacol] showed an odorant receptor activation of 0.831. Work on O=CCc1ccccc1 [phenyl acetaldehyde] yielded an odorant receptor activation of 1.52. With CC12C=CCC1C1CCC3CC(=O)CCC3(C)C1CC2 (stereo not drawn) [androstenone] the odorant receptor activation was 0.901. C=C(C)C1CC=C(C)C(=O)C1 (stereo not drawn) [r-carvone] was tested, and the odorant receptor activation was 0.991. With CCCCCCC=O [heptaldehyde] the odorant receptor activation was 0.947 and 0.767. In the case of C=C(C)C1CC=CCC1 (stereo not drawn) [r-limonene], the odorant receptor activation is reported as 1.4 and 0.708. With COC(=O)c1ccccc1O [methyl salicylate] the odorant receptor activation was 0.999. For CCCCCCCCOC(C)=O [octyl acetate], the odorant receptor activation was 0.891. For CCC1(O)C2(C)CCC(C2)C1(C)C (stereo not drawn) [2-ethylfenchol], the odorant receptor activation was 0.821. Work on CC(C)=CCCC(C)=CC=O [citral] yielded an odorant receptor activation of 0.276. Compound CC1=NC(C)SC1C (stereo not drawn) has an odorant receptor activation of 1.01. CC12C=CCC1C1CCC3=CC(=O)CCC3(C)C1CC2 (stereo not drawn) [androstadienone] showed an odorant receptor activation of 0.978. O=C1CCCCCCCCCCCC(=O)OCCO1 [ethylene brassylate] gave an odorant receptor activation of 1.77. CCCCCC(=O)O [caproic acid] was tested, and the odorant receptor activation was 0.22. O=C1CCCCC1 [Cyclohexanone] was tested, and the odorant receptor activation was 0.868. In the case of CC(C)CC(=O)O [isovaleric acid], the odorant receptor activation is reported as 0.63.

What follows are compounds tested on OR5T3 clone 1343 in the same assay as above. Conditions: 100 µM.
Work on COC(=O)c1ccccc1 [methyl benzoate] yielded an odorant receptor activation of 0.617. For CCCCCOC(C)=O [n-amyl acetate], the odorant receptor activation was 0.442. With CC1COCc2cc3c(cc21)C(C)(C)C(C)C3(C)C (stereo not drawn) [galaxolide] the odorant receptor activation was 6.01 and 5.53. C=CCc1ccc(OC(C)=O)c(OC)c1 [eugenol acetate] was tested, and the odorant receptor activation was 1.38. Work on CC12CCC(CC1)C(C)(C)O2 [cineole] yielded an odorant receptor activation of 0.924. For CCCC(=O)O [butyric acid], the odorant receptor activation was 0.856. Compound CCCCCC(C)=O [2-heptanone] has an odorant receptor activation of 1.35. CC(C)(C)c1ccc(CCC=O)cc1 [bourgeonal] gave an odorant receptor activation of 0.537. With CC(=O)OC1CC2CCC1(C)C2(C)C (stereo not drawn) [isobornyl acetate] the odorant receptor activation was 1.12 and 0.852. Work on CCCCO [1-butanol] yielded an odorant receptor activation of 1. In the case of CC(=O)c1ccccc1 [acetophenone], the odorant receptor activation is reported as 1.38. In the case of COc1ccccc1O [guaiacol], the odorant receptor activation is reported as 1.33 and 1. For O=CCc1ccccc1 [phenyl acetaldehyde], the odorant receptor activation was 1.2. CC12C=CCC1C1CCC3CC(=O)CCC3(C)C1CC2 (stereo not drawn) [androstenone] gave an odorant receptor activation of 1.51. In the case of C=C(C)C1CC=C(C)C(=O)C1 (stereo not drawn) [r-carvone], the odorant receptor activation is reported as 0.769. For CCCCCCC=O [heptaldehyde], the odorant receptor activation was 0.462 and 1.32 and 1.05. In the case of C=C(C)C1CC=CCC1 (stereo not drawn) [r-limonene], the odorant receptor activation is reported as 0.941 and 0.395. COC(=O)c1ccccc1O [methyl salicylate] was tested, and the odorant receptor activation was 0.799. CCCCCCCCOC(C)=O [octyl acetate] showed an odorant receptor activation of 1.05. Work on CCC1(O)C2(C)CCC(C2)C1(C)C (stereo not drawn) [2-ethylfenchol] yielded an odorant receptor activation of 0.566. CC(C)=CCCC(C)=CC=O [citral] was tested, and the odorant receptor activation was 1.02. For CC1=NC(C)SC1C (stereo not drawn), the odorant receptor activation was 1.3. With CC12C=CCC1C1CCC3=CC(=O)CCC3(C)C1CC2 (stereo not drawn) [androstadienone] the odorant receptor activation was 1.71 and 1.05. Compound O=C1CCCCCCCCCCCC(=O)OCCO1 [ethylene brassylate] has an odorant receptor activation of 1.14. For CCCCCC(=O)O [caproic acid], the odorant receptor activation was 0.875. Compound O=C1CCCCC1 [Cyclohexanone] has an odorant receptor activation of 0.684. Compound CC(C)CC(=O)O [isovaleric acid] has an odorant receptor activation of 0.738.

From the odorant receptor screen of Mainland et al. (2015)
